In article PMC9209722 one finds binding data, which are given here for one molecule.

Chains of the proteins cited; added tags and fusions are not shown.
UniProt P23804: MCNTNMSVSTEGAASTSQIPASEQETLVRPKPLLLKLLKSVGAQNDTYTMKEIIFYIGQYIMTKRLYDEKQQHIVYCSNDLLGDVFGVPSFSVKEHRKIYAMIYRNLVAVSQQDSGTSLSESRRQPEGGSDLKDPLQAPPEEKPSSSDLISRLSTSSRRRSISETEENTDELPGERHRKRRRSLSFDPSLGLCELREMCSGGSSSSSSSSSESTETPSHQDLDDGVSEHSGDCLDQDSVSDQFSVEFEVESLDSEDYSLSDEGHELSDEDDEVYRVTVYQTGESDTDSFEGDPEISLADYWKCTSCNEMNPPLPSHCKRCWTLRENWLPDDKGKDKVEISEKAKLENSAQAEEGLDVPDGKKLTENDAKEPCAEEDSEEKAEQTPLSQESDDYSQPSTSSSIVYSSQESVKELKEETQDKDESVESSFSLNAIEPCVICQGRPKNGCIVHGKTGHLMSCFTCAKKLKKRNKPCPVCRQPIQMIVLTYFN

The target of the experiment is Murine double minute 2 (MDM2), Flag-tagged mouse MDM2 (mouse) (UniProt P23804). The experiment in a line: co-IP; 293T cells transfected with the indicated constructs, treated with palmitic acid (0.4 mM) for 24 h, lysed; immunoprecipitation with Flag-tagged or Myc-tagged magnetic beads at 4°C overnight; Western blotting. For orientation: In western blotting, separated proteins are transferred to a membrane and probed.

These are yes or no findings as the source states them, for the method shown. In cells and extracts the contact can be indirect. Some binding calls cover weakened binding; strength is not graded here. Where a sequence is shown, tags or fusion partners need not be part of it.

B1: Six-transmembrane epithelial antigen of prostate 4 (STEAP4), tagged mouse STEAP4 (protein, UniProt Q923B6 1-470)
chain: MEKAHADEFPLTTDSSEKQGVVCIFGTGDFGKSLGLKMLQCGYSIVFGSRNPQVSSLLPRGAEVLSYSEAASKSDIIILAMHREHYDSLTELVDYLKGKVLVDVSNNRKINQYPESNAEYLAQLEPGAHVVKAFNTISAWALQSGTLDASRQVFVCGNDSKAKQRVMDIARTLGLTPLDQGSLMAASEIENYPLQLFPMWRFPFYLSSVLCVFFFVYCAIREVIYPYVNGKTDATYRLAISIPNRVFPITALILLALVYLPGILAAILQLYRGTKYRRFPNWLDHWMLCRKQLGLVALGFAFLHVIYTLVIPIRYYVRWRLRNATITQALTNKDSPFITSYAWINDSYLALGILGFFLFLLLGITSLPSVSNMVNWREFRFVQSKLGYLTLVLCTAHTLVYGGKRFLSPSILRWSLPSAYILALVIPCAVLVLKCILIMPCIDKTLTRIRQGWERNSKYTQSALNGKSDI
On to B1, for which the binding result is “binds”.
